The text below walks through data of the supplement of paper PMC6411743.

Protein sequences, listed by entry. Tags and fused reporters are not part of them. Lines headed by an entry give the natural chain unless they say otherwise; changes in a name come on top.
UniProt Q15393: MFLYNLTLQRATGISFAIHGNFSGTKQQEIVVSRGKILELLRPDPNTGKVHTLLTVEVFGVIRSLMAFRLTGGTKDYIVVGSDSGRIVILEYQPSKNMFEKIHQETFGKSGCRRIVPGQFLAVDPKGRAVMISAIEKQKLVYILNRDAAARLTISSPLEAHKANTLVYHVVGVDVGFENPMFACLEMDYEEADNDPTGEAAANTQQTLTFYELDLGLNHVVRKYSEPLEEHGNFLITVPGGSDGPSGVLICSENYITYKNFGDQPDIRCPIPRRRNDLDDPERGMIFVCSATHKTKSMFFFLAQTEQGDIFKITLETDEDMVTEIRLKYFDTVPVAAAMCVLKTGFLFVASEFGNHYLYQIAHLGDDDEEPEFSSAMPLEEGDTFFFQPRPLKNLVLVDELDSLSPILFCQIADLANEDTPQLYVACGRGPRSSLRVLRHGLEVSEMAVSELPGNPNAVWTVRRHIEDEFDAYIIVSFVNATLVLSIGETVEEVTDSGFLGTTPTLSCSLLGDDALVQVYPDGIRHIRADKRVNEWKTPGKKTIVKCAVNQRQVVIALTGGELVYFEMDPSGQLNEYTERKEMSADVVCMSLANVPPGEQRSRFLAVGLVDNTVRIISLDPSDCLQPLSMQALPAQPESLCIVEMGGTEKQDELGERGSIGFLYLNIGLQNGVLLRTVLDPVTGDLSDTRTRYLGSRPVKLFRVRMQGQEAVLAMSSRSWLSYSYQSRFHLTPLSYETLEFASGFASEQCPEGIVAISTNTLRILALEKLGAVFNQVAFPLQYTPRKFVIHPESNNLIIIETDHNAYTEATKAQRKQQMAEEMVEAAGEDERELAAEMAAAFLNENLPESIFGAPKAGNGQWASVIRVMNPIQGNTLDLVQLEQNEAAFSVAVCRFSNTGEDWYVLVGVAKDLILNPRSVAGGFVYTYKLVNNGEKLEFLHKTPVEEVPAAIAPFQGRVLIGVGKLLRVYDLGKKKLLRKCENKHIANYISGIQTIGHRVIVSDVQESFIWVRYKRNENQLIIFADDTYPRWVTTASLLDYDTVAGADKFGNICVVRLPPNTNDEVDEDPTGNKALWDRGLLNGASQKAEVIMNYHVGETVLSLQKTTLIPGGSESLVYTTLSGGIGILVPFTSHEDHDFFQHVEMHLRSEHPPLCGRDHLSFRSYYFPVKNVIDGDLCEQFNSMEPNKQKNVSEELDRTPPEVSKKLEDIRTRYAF
UniProt Q14764, whole entry: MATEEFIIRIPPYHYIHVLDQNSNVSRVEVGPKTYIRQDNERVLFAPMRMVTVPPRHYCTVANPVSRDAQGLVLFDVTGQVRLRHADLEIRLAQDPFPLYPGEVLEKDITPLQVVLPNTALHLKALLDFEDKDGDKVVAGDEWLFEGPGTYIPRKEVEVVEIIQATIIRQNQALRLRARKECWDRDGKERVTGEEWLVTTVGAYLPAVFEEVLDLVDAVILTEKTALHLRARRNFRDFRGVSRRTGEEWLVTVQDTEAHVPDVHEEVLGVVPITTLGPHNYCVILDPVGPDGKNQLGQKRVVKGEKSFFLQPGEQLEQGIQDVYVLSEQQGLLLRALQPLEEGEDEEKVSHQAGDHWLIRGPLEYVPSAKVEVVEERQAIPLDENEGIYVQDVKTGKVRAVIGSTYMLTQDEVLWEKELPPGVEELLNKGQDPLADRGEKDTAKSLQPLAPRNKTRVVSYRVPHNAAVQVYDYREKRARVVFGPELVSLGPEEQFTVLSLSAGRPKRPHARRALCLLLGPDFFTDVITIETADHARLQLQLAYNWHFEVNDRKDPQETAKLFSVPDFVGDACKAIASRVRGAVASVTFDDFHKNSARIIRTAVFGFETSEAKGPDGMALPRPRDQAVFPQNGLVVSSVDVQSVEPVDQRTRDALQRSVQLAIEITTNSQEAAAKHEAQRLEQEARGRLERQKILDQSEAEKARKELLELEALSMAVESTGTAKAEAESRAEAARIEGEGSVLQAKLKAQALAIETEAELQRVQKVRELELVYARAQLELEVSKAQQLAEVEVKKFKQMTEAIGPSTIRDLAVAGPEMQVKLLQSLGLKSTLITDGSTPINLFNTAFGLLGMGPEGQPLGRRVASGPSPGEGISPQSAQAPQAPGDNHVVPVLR
UniProt Q5SRI9: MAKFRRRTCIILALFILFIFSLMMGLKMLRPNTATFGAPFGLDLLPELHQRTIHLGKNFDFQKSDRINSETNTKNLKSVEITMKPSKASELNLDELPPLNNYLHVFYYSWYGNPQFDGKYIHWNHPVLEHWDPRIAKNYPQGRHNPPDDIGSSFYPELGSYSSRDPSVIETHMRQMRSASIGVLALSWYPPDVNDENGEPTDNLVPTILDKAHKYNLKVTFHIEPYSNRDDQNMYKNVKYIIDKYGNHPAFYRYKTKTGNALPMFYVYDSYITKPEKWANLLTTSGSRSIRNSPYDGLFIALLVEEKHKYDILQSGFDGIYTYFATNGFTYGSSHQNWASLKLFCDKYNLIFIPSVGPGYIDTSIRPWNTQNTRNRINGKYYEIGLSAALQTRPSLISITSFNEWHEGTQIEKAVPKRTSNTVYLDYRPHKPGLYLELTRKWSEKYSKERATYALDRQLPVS
UniProt Q16630, whole entry: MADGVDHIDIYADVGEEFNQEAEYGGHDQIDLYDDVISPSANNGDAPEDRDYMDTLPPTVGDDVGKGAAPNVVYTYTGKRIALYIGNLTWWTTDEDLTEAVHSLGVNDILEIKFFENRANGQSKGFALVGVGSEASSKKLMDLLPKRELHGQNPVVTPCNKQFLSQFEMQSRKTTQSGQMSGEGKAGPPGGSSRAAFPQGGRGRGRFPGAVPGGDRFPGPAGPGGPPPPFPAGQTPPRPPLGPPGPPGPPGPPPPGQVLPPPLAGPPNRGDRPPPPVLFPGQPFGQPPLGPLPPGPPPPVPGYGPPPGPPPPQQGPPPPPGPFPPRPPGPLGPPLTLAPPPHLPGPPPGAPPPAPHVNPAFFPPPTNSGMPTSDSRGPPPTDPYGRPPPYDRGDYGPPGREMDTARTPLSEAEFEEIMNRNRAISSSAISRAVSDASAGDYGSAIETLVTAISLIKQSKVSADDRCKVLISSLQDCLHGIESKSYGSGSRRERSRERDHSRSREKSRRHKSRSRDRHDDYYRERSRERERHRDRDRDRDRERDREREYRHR
UniProt Q14807: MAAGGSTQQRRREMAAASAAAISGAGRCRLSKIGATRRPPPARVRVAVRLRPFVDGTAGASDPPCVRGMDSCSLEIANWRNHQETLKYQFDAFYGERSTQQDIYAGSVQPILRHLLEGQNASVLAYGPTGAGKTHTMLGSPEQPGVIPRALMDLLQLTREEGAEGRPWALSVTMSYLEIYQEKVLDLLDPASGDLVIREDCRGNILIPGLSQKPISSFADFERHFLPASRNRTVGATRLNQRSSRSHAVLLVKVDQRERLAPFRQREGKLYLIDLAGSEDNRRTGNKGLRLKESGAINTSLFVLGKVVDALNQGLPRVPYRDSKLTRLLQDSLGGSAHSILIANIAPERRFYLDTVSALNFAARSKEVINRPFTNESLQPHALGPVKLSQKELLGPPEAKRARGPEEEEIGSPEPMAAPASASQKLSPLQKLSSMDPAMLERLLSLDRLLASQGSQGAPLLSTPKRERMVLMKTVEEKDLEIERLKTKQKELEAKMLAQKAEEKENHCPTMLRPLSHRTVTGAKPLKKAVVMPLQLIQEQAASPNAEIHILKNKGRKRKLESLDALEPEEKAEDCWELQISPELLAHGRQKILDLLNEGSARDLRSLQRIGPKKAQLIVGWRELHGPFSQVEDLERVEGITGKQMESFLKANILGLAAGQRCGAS

Compound in this experiment: Nc1nc2c(ncn2[C@@H]2O[C@H](COP(=O)(O)OP(=O)(O)OP(=O)(O)O)[C@@H](O)[C@H]2O)c(=O)[nH]1 [guanosine triphosphate]
Kind of experiment: NP40-soluble protein abundance relative to vehicle (solubility fold change) (ratio); higher = more soluble protein in presence of GTP. The protocol:
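Solubility proteome profiling in Jurkat crude lysate. Lysate was treated with Mg-GTP (0.1-10 mM) for 10 min at room temperature and 3 min at 37 °C, then solubilised with 0.8% NP40 and benzonase, followed by ultracentrifugation. Proteins were quantified by TMT10 LC-MS/MS; the value is the NP40-soluble abundance relative to the NP40-processed vehicle, from 3 independent experiments.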

± gives the standard deviation of the averaged measurements. This is one part of the list.

Take SF3B3 (UniProt Q15393): the NP40-soluble protein abundance reads like this: (concentration: 0.1mM) 1.07 ± 0.024; (concentration: 0.5mM) 1.12 ± 0.063; (concentration: 1mM) 1.09 ± 0.079; (concentration: 2mM) 1.13 ± 0.12; (concentration: 4mM) 1.18 ± 0.13; (concentration: 6mM) 1.18 ± 0.13. Also, the NP40-soluble protein abundance reads like this: (concentration: 8mM) 1.15 ± 0.11; (concentration: 10mM) 1.13 ± 0.099.
With MVP (UniProt Q14764), the NP40-soluble protein abundance (concentration: 0.1mM) was 0.999 ± 0.019; the NP40-soluble protein abundance (concentration: 0.5mM) came out at 1.03 ± 0.087; the NP40-soluble protein abundance (concentration: 1mM) amounted to 1.06 ± 0.081; the NP40-soluble protein abundance (concentration: 2mM) is 1.14 ± 0.12; the NP40-soluble protein abundance (concentration: 4mM) turned out to be 1.29 ± 0.34; the NP40-soluble protein abundance (concentration: 6mM) stood at 1.12 ± 0.3. Besides, the NP40-soluble protein abundance is, setting by setting: (concentration: 8mM) 1.06 ± 0.19; (concentration: 10mM) 1.02 ± 0.23.
Turning to MANEA (UniProt Q5SRI9), the NP40-soluble protein abundance reads like this: (concentration: 0.1mM) 1 ± 0.081; (concentration: 0.5mM) 0.987 ± 0.067; (concentration: 1mM) 0.951 ± 0.06; (concentration: 2mM) 1.01 ± 0.075; (concentration: 4mM) 0.976 ± 0.09; (concentration: 6mM) 0.915 ± 0.06. In addition, the NP40-soluble protein abundance by setting is: (concentration: 8mM) 0.913 ± 0.087; (concentration: 10mM) 0.948 ± 0.056.
Regarding UniProt Q16630 and related entries, the NP40-soluble protein abundance (concentration: 0.1mM) worked out at 1.16 ± 0.012; the NP40-soluble protein abundance (concentration: 0.5mM) was determined as 1.64 ± 0.098; the NP40-soluble protein abundance (concentration: 1mM) worked out at 1.95 ± 0.22; the NP40-soluble protein abundance (concentration: 2mM) came to 2.23 ± 0.3; the NP40-soluble protein abundance (concentration: 4mM) was 2.49 ± 0.41; the NP40-soluble protein abundance (concentration: 6mM) turned out to be 2.58 ± 0.45. The NP40-soluble protein abundance reads like this: (concentration: 8mM) 2.71 ± 0.58; (concentration: 10mM) 2.75 ± 0.56.
As for KIF22 (UniProt Q14807), the NP40-soluble protein abundance reads like this: (concentration: 0.1mM) 1.1 ± 0.038; (concentration: 0.5mM) 1.12 ± 0.064; (concentration: 1mM) 1.13 ± 0.038; (concentration: 2mM) 1.11 ± 0.058; (concentration: 4mM) 1.17 ± 0.085; (concentration: 6mM) 1.21 ± 0.076. Further, the NP40-soluble protein abundance runs as follows: (concentration: 8mM) 1.21 ± 0.1; (concentration: 10mM) 1.19 ± 0.12.
